45 molecules from article PMC4985585 can be followed below.

Amino acid sequences for entries named in this document (tags omitted). Residues count along the entry.
UniProt Q9ERK7: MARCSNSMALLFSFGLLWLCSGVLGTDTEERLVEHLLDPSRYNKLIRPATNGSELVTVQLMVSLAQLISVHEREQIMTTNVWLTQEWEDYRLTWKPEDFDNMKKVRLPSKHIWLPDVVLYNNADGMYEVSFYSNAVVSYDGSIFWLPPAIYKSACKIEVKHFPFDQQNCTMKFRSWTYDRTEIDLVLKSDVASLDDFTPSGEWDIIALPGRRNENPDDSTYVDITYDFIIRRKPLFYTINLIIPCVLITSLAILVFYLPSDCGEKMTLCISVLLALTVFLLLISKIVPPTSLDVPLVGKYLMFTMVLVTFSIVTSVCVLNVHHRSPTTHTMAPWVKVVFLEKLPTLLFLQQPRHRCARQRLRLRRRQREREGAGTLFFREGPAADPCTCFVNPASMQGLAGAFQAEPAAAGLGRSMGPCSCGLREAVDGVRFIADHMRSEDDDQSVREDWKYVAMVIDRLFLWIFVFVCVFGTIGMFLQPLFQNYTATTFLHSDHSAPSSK
UniProt Q7TMF3: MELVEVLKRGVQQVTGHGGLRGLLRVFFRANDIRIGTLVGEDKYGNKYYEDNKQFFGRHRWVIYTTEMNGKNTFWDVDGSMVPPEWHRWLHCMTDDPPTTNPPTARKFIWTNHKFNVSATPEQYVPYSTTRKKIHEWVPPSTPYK
UniProt Q9D6J5, residues 29-186: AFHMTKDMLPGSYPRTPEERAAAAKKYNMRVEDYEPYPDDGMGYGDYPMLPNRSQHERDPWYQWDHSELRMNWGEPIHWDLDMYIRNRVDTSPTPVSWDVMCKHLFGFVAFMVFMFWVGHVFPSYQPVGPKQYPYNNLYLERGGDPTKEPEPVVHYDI
UniProt Q9DC69, residues 36-377: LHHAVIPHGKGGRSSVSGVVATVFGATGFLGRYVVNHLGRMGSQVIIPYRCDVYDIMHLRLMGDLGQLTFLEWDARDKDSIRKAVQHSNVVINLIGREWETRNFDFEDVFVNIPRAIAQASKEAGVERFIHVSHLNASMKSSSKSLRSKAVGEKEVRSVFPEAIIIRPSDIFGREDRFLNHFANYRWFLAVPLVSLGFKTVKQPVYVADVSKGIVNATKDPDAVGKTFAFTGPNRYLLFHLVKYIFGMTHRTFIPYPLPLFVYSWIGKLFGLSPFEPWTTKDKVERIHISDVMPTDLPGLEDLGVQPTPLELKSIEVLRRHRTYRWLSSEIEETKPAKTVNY
UniProt Q91WD5, residues 34-463: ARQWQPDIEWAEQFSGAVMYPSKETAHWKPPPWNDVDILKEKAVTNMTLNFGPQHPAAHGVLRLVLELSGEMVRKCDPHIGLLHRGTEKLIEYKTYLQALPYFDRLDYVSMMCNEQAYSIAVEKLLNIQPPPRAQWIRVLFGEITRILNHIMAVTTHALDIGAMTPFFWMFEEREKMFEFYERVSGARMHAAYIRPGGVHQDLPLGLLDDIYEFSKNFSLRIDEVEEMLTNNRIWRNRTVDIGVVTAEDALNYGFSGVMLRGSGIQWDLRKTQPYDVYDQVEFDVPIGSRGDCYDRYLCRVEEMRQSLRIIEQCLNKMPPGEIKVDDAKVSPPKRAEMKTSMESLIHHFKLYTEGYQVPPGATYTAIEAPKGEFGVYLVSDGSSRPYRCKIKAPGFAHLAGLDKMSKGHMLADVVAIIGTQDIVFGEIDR
UniProt P15105: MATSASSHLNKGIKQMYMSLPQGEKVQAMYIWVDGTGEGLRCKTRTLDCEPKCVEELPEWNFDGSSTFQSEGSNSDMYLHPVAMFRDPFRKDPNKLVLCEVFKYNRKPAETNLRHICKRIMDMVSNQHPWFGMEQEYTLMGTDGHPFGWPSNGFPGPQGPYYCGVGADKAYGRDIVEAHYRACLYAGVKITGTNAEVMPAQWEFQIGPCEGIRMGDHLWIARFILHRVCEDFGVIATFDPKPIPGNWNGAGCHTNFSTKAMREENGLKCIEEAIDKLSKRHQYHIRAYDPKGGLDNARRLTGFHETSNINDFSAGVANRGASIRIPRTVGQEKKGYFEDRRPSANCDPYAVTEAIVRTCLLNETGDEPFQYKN
UniProt Q9CQZ5: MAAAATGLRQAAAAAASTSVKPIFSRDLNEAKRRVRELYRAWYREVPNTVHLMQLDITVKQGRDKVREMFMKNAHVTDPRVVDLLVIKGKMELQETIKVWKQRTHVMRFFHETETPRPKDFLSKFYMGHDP
UniProt O70174, residues 31-629: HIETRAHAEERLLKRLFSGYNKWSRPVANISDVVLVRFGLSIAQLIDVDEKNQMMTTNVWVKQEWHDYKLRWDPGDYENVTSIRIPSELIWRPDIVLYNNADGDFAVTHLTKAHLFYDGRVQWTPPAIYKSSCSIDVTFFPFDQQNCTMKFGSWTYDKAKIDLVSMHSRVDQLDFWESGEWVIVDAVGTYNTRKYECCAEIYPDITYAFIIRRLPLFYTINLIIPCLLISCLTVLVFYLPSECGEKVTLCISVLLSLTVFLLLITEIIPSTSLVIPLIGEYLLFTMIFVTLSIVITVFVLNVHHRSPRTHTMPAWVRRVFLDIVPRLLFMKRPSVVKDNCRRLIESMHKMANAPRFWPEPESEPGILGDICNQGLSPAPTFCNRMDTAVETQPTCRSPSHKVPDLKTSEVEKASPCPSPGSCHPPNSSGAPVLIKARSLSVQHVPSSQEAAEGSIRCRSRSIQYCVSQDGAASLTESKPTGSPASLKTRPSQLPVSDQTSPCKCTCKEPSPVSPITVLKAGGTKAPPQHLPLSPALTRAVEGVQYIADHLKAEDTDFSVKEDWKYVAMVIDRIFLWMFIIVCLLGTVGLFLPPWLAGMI
UniProt Q9Z1P6: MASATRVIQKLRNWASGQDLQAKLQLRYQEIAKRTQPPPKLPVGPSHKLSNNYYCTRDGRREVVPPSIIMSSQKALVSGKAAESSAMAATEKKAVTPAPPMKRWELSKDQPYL
UniProt P61264: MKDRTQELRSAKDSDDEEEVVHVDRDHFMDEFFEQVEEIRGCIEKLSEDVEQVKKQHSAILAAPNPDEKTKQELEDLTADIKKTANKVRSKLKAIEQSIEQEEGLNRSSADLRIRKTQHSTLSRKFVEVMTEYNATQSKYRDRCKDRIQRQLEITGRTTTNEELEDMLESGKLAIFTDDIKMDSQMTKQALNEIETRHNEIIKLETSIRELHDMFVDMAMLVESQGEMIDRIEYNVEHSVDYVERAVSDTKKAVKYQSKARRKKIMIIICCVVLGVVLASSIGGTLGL
UniProt Q9CQH3, residues 47-189: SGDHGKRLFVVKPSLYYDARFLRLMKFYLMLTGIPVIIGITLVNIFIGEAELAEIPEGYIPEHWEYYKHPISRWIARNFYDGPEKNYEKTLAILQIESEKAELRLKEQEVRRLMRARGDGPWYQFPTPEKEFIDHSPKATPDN
UniProt P43006: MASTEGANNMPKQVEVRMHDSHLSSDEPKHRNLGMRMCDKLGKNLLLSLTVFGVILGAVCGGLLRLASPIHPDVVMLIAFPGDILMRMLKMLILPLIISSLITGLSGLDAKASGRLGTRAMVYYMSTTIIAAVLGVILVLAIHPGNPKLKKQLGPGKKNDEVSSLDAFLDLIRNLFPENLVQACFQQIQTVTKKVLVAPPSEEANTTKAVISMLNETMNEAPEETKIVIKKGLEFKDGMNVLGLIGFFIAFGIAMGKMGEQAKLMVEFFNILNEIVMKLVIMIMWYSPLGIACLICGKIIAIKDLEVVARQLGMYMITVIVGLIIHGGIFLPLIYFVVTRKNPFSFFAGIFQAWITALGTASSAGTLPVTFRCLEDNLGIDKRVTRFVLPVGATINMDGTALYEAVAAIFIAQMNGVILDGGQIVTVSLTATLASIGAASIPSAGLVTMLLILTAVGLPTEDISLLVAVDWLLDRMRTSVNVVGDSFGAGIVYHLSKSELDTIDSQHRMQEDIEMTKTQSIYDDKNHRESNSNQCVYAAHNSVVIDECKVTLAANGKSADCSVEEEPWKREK
UniProt Q9CXZ1, residues 43-175: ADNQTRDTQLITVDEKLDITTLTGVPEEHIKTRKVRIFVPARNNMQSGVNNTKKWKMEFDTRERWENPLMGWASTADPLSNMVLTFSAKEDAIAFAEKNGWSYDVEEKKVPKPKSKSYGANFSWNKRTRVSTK
UniProt Q3UIU2: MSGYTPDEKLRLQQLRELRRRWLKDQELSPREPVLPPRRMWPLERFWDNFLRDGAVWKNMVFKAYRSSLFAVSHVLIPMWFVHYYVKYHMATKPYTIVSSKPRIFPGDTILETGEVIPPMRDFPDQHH
UniProt Q9Z1G4: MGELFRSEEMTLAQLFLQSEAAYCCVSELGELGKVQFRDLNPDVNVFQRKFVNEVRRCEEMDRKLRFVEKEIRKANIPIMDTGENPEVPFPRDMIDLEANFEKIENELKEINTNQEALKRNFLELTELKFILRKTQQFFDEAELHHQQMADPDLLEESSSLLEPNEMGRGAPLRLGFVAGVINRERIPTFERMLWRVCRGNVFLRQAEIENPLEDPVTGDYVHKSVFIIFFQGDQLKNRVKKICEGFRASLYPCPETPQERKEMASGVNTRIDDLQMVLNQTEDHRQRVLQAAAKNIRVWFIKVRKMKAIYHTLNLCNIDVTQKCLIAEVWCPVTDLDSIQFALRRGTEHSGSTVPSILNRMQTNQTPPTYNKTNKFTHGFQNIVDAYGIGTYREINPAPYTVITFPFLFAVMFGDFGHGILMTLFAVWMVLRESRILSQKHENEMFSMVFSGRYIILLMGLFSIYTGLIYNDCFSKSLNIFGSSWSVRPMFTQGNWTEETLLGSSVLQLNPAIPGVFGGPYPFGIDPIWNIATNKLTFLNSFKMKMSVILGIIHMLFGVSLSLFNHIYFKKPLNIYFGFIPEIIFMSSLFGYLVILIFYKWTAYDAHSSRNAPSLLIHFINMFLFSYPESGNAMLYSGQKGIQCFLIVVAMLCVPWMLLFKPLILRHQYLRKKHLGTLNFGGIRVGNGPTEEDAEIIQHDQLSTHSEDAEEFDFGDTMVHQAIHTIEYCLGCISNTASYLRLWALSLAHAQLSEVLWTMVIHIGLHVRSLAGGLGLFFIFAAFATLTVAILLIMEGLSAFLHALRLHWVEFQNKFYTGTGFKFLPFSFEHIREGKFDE
UniProt Q9DCX2: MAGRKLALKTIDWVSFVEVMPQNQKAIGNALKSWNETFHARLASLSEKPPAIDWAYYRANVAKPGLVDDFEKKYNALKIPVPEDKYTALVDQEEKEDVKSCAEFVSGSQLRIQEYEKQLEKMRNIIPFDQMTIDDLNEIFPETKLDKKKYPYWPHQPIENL
UniProt Q9CQ75: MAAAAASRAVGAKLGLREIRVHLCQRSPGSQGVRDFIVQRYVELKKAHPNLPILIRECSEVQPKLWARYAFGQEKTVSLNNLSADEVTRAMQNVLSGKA
UniProt P52503, residues 21-116: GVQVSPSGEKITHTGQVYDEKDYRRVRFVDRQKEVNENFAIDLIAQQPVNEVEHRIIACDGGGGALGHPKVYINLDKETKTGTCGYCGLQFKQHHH
UniProt Q2MKA5, residues 30-467: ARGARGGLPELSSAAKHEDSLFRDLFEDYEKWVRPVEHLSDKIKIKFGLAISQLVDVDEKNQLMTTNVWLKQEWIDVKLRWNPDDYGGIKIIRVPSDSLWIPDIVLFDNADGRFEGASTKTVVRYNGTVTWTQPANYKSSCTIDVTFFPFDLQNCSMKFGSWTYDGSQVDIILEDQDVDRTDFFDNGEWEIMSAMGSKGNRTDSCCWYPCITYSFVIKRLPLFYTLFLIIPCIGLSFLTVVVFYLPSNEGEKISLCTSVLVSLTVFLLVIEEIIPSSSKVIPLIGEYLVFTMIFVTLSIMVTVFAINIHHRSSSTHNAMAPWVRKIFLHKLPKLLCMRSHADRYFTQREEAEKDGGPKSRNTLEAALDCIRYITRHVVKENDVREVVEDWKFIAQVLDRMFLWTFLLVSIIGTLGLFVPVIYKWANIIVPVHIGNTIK
UniProt Q9D6F9: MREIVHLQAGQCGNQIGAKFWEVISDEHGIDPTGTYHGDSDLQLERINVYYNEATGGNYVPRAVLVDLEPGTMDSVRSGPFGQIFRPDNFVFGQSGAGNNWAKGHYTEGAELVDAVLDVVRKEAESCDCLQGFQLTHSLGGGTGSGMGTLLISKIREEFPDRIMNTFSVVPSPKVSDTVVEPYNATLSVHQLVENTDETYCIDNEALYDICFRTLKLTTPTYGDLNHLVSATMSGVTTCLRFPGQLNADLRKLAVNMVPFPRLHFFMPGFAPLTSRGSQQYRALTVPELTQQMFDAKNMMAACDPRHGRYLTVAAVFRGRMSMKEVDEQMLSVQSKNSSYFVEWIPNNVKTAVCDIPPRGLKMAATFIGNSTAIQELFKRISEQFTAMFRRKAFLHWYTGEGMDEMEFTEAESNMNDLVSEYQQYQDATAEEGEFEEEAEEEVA
UniProt Q9DC70, residues 36-224: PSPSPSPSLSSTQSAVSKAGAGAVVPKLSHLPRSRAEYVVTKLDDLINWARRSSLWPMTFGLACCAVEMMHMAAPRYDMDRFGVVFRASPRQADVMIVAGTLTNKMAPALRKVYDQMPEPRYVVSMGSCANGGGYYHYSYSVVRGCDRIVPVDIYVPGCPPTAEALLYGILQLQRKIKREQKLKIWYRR
UniProt Q9DCT2, residues 36-263: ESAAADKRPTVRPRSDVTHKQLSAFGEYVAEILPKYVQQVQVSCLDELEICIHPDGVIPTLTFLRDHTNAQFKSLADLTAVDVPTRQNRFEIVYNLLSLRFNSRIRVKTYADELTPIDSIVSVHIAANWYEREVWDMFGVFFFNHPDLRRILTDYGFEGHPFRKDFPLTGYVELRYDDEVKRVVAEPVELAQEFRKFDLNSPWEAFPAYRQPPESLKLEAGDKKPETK

B1: 14-3-3 protein theta (mouse) (protein, UniProt P68254 1-245)
chain: MEKTELIQKAKLAEQAERYDDMATCMKAVTEQGAELSNEERNLLSVAYKNVVGGRRSAWRVISSIEQKTDTSDKKLQLIKDYREKVESELRSICTTVLELLDKYLIANATNPESKVFYLKMKGDYFRYLAEVACGDDRKQTIENSQGAYQEAFDISKKEMQPTHPIRLGLALNFSVFYYEILNNPELACTLAKTAFDEAIAELDTLNEDSYKDSTLIMQLLRDNLTLWTSDSAGEECDAAEGAEN

Results are given in words; binding and its absence hold for the method and conditions named. In cells and extracts the contact can be indirect. Here binding means that the protein was enriched with, or labelled near, the bait; the list need not be complete.

In this assay the target is Neuronal acetylcholine receptor subunit β2 (mouse) (mouse (endogenous in cortex)) (UniProt Q9ERK7). The experiment in a line: affinity purification with mass spectrometry; β2*-nAChRs captured on mAb295-coupled M270 Dynabeads from a Triton X-100 extract of pooled mouse cortex membranes after DSP cross-linking; eight-plex iTRAQ LC-MS/MS; β2+/+, β2+/-, α4+/-β2+/- and β2-/- mice given saline or nicotine (4 mg/kg/h, 10 d); proteins found in both biological replicates.
For the molecule “NADH dehydrogenase [ubiquinone] 1 α subcomplex subunit 12 (mouse) (from UniProt Q7TMF3 1-145)”, the binding entry is recorded as “binds”.

Turning to “V-type proton ATPase catalytic subunit A (mouse) (from UniProt P50516 1-617)”, the binding result is on record as “binds”.

Consider “NADH-ubiquinone oxidoreductase 75 kDa subunit, mito (mouse) (from UniProt Q91VD9 24-727)”, for which the binding entry is listed as “binds”.

For the molecule “NADH dehydrogenase [ubiquinone] 1 β subcomplex subunit 8, mito (mouse) (from UniProt Q9D6J5 29-186)”, the binding entry was “binds”.

Take “ATP synthase subunit α, mito (mouse) (from UniProt Q03265 44-553)”: the binding entry is “binds”. Consider “Spectrin α chain, nonerythrocytic 1 (mouse) (from UniProt P16546 1-2472)”, for which the binding entry is recorded as “binds”. Take “Synaptosomal-associated protein 25 (mouse) (from UniProt P60879 1-206)”: the binding entry is “binds”. Consider “Calcium/calmodulin-dependent protein kinase type II subunit α (mouse) (from UniProt P11798 1-478)”, for which the binding result is recorded as “binds”.

Consider “Calcium/calmodulin-dependent protein kinase type II subunit β (mouse) (from UniProt P28652 1-542)”, for which the binding entry is on record as “binds”. For the molecule “NADH dehydrogenase [ubiquinone] flavoprotein 1, mito (mouse) (from UniProt Q91YT0 21-464)”, the binding entry is “binds”. Take “Spectrin β chain, nonerythrocytic 1 (mouse) (from UniProt Q62261 1-2363)”: the binding result is “binds”. Turning to “NADH dehydrogenase [ubiquinone] 1 α subcomplex subunit 9, mito (mouse) (from UniProt Q9DC69 36-377)”, the binding entry is recorded as “binds”.

As for “Tropomyosin α3 chain (mouse) (from UniProt P21107 1-285)”, the binding entry is recorded as “binds”. Turning to “NADH dehydrogenase [ubiquinone] iron-sulfur protein 2, mito (mouse) (from UniProt Q91WD5 34-463)”, the binding entry is listed as “binds”. “Glutamine synthetase (mouse) (from UniProt P15105 1-373)”: the binding result was “binds”. As for “NADH dehydrogenase [ubiquinone] iron-sulfur protein 8, mito (mouse) (from UniProt Q8K3J1 35-212)”, the binding entry is “binds”. To “Guanine nucleotide-binding protein G(I)/G(S)/G(T) subunit β1 (mouse) (from UniProt P62874 1-340)” belongs “binds”; to “Tubulin β5 chain (mouse) (from UniProt P99024 1-444)”, “binds”.

Regarding “NADH dehydrogenase [ubiquinone] 1 α subcomplex subunit 6 (mouse) (from UniProt Q9CQZ5 1-131)”, the binding result is on record as “binds”. The value for “Neuronal acetylcholine receptor subunit α4 (mouse) (from UniProt O70174 31-629)” was “binds”; that for “NADH dehydrogenase [ubiquinone] 1 α subcomplex subunit 7 (mouse) (from UniProt Q9Z1P6 1-113)” was “binds”.

As to “Myosin-10 (mouse) (from UniProt Q61879 1-1976)”, the binding result is listed as “binds”. The value for “Voltage-dependent anion-selective channel protein 1 (mouse) (from UniProt Q60932 1-296)” was “binds”; that for “Synaptophysin (mouse) (from UniProt Q62277 1-314)” was “binds”. In the case of “Tubulin β4B chain (mouse) (from UniProt P68372 1-445)”, the binding entry is recorded as “binds”. The value for “Nestin (mouse) (from UniProt Q6P5H2 1-1864)” was “binds”.

Consider “Myelin basic protein (mouse) (from UniProt P04370-5)”, for which the binding result was “binds”. “Syntaxin-1B (mouse) (from UniProt P61264 1-288)”: the binding result is recorded as “binds”.

“NADH dehydrogenase [ubiquinone] 1 β subcomplex subunit 5, mito (mouse) (from UniProt Q9CQH3 47-189)”: the binding result is listed as “binds”. As for “Excitatory amino acid transporter 2 (mouse) (from UniProt P43006 1-572)”, the binding entry is “binds”. To “NADH dehydrogenase [ubiquinone] iron-sulfur protein 4, mito (mouse) (from UniProt Q9CXZ1 43-175)” belongs “binds”; to “NADH dehydrogenase [ubiquinone] 1 β subcomplex subunit 6 (mouse) (from UniProt Q3UIU2 1-128)”, “binds”. To “Prohibitin-2 (mouse) (from UniProt O35129 1-299)” belongs “binds”; to “V-type proton ATPase 116 kDa subunit a isoform 1 (mouse) (from UniProt Q9Z1G4 1-839)”, “binds”. Turning to “ATP synthase subunit d, mito (mouse) (from UniProt Q9DCX2 1-161)”, the binding result is “binds”.

As to “NADH dehydrogenase [ubiquinone] 1 α subcomplex subunit 2 (mouse) (from UniProt Q9CQ75 1-99)”, the binding entry is “binds”. “ATP synthase subunit β, mito (mouse) (from UniProt P56480 47-529)”: the binding result is “binds”.

Consider “NADH dehydrogenase [ubiquinone] iron-sulfur protein 6, mito (mouse) (from UniProt P52503 21-116)”, for which the binding entry is reported as “binds”. Consider “Synaptotagmin-1 (mouse) (from UniProt P46096 1-421)”, for which the binding entry is given as “binds”. For the molecule “Neuronal acetylcholine receptor subunit α5 (mouse) (from UniProt Q2MKA5 30-467)”, the binding result was “binds”. The value for “Tubulin β4A chain (mouse) (from UniProt Q9D6F9 1-444)” was “binds”; that for “Tubulin α4A chain (mouse) (from UniProt P68368 1-448)” was “binds”; that for “NADH dehydrogenase [ubiquinone] iron-sulfur protein 7, mito (mouse) (from UniProt Q9DC70 36-224)” was “binds”. The value for “NADH dehydrogenase [ubiquinone] iron-sulfur protein 3, mito (mouse) (from UniProt Q9DCT2 36-263)” was “binds”. Take B1: the binding entry is on record as “binds”.
